# Percent effect of library compounds

The values are deposited in ChEMBL (CHEMBL3988442, “University of Dundee, Small-Polar-MMV Screening Library” (2021)).

The filed quantity is “Percent Effect” (%).
The record does not define 0% and 100%; most values in the screen are far below 50% and negative numbers occur (in some assays of this library far below -100).
The compounds are a random part of those screened.

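Whole-parasite assay of Trypanosoma brucei over 72 hours; the read-out is not stated. Tested at 30 µM. The record gives no direction; compounds that gave an IC50 in retests scored well above the rest, so higher reads as stronger inhibition. Values scatter widely below zero; nearly all retest evidence comes from the higher of the two concentrations used. Size under these conditions: about 64,000 compounds, about 940 of them at 50% or above in at least one test.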

compound | percent effect
CSc1ccc(C(O)CNS(=O)(=O)C2CC2)cc1 (stereo unspecified) | 0.7424
CCNC(=O)NC1CN(Cc2ccccc2N(C)C)C[C@@H]1OC (stereo partly specified) | -10.48
CN(C)C(=O)C1SCCc2ccccc21 (stereo unspecified) | -5.05
Cc1cccc(Nc2cc(C)nc(C3CCN(C(C)C)C3)n2)n1.O=CO (stereo unspecified) | 12.87
CC(C)C1CN(C(=O)c2cn3ccccc3n2)CCCN1CC1CC1 (stereo unspecified) | -7.806
[H][C@@]12COC[C@@H](C(=O)NC)[C@]1([H])CN(C(=O)COc1ccccc1)C2 | -35.61
Cn1nc2c(cc1=O)CN(CCc1nc3ccccc3c(=O)[nH]1)CC2 | -41.75
COc1ccc(CNC(=O)c2nc3c(s2)CCN(C(C)=O)CC3)cc1 | -405
Cc1ccc(CN2CCOCC3(C2)CN(c2ccc(C)s2)C(=O)CO3)o1.O=C(O)C(F)(F)F (stereo unspecified) | -58.37
[H][C@]12CCN(C(=O)Cc3cccc(OC)c3)[C@@]1([H])CCC(=O)N2 | -42.02
CCc1nnc(CN2CCCC(Cn3nc(C)nc3C)C2)o1 (stereo unspecified) | -8.029
CCn1c(SCC(=O)O)nnc1C(C)NC(=O)c1ccc(Cl)cc1 (stereo unspecified) | -24.52
COc1ccc(CNCC2CCN(CCO)CC2)cc1F | -13.24
Cc1ccc(C(N)c2cccc(S(C)(=O)=O)c2)c(C)c1.Cl (stereo unspecified) | -9.271
CC(C(=O)N1CCCC1)N1CCN(c2ncc(Cl)cn2)CC1 (stereo unspecified) | -19.87
CC(C)Cn1ncc(C(=O)NS(=O)(=O)C2CCCC2)c1C1CC1 | -72.31
COc1ccc(-c2c(C(C)C)nn3c(=N)c(C#N)n[nH]c23)cc1 | 10.84
Cc1nccn1C1CCCN(C(=O)C2=NN(C)C(=O)CC2)C1 (stereo unspecified) | -25.28
CCN1CCN(C2(C(=O)NC3CCCC3)Cc3ccccc3C2)CC1 | 0.5976
O=S(=O)(NCC1CCCN(Cc2ccccc2F)C1)C1CC1 (stereo unspecified) | -9.027
Cc1ncccc1O[C@H]1CCN(C(=O)Cc2cccs2)CC[C@@H]1O | 7.534
OCC1(CC2CC2)CCCN(Cc2cnc(N3CCOCC3)nc2)C1 (stereo unspecified) | -15.61
COCCn1cnnc1C(C)NC(=O)c1[nH]c2c(C)cc(C)cc2c1C (stereo unspecified) | -85.75
O=C(O)C(F)(F)F.O=C(c1ccco1)N1CCCC2(CCN(c3nncs3)C2)C1 (stereo unspecified) | -48.41
COc1cccc(NC(=O)CCCc2nc(C(C)C)no2)c1 | 1.841
CCc1nc(N)nc(NCCC(=O)N2CCCC2)c1C | -104.9
CC(O)CNC(=O)NCc1cccnc1OC1CCCC1 (stereo unspecified) | -21.44
Cn1c(C(F)(F)F)nn(CCNC(=O)CCc2ccccc2)c1=O | -25.18
Cc1cc(CN2CCC(c3ccnn3CCO)CC2)no1 | 2.362
CCCN1CC2(CCN(c3ncc(F)cn3)CC2)CC1C(=O)O (stereo unspecified) | -16.67
CC(C)N(C)C(=O)COc1ccc(-c2noc(C3CCCO3)n2)cc1 (stereo unspecified) | -15.49
CC1CCN(CCNC(=O)c2ccn(-c3ccccc3)n2)CC1 | 21.31
Cc1cccc(=O)n1CCC(=O)N1CC[C@@](O)(C2CCC2)[C@H](C)C1 | -39.78
CC(C)(C)NCc1nn(Cc2ccccc2)nc1-c1ccccc1 | -2.01
COC(=O)c1cccc(S(=O)(=O)NC(=O)c2cccc(OC)c2OC)c1 | 14.21
CN(Cc1cc(C2CC2)on1)C(=O)CN1C(=O)OC(C)(C)C1=O | -78.32
CN(C)C(=O)CNC(=O)c1ccc2c(-c3nccs3)noc2c1 | -23.54
O=C(O)C(F)(F)F.[H][C@]12CN(C(=O)c3cc(C)ccn3)C[C@@]1([H])OCCN(S(C)(=O)=O)C2 | -61.39
O=C(O)C(F)(F)F.O=C(O)C(F)(F)F.[H][C@]12CO[C@H](CNC(=O)c3cccnc3)[C@@]1([H])CCN(Cc1ccco1)C2 | -40.51
[H][C@]12CC[C@]([H])(CN(c3ncccn3)C1)N(C(=O)c1cc(C(C)C)oc1C)C2 | -77.88
CC1CCN(CCNC(=O)C(C)n2cncn2)CC1 (stereo unspecified) | 5.304
CC(C)c1nc(CN2CCCC(Cn3cncn3)C2)cs1 (stereo unspecified) | -34.16
N[C@@H]1CC[C@@H]1NC(=O)c1ccccc1OC(F)(F)C(F)F | -113.1
Cc1ccsc1C(=O)N1CCC(O)(CN2CCc3ccccc3C2)C1 (stereo unspecified) | 29.19
[H][C@]12CCCCN1CCC[C@H]2CNC(=O)Cn1ccc2cc(Br)ccc21 | -33.11
CN(C)c1cc(C2CCCN2)ccn1 (stereo unspecified) | -21.13
CC(C)c1noc(CCC(=O)NC(C)c2nnc3n2CCCCC3)n1 (stereo unspecified) | -10.72
O=c1ccc2c(n1CC1CC1)CCN(c1ncccn1)CC2 | -41.88
CC(C)(C)c1noc(CN2CCCN(Cc3cccs3)CC2)n1 | -13.89
Cc1cc(C(=O)N2CCn3cc(CN4CCOCC4)nc3C2)no1.O=C(O)C(F)(F)F | -304.6
c1ccc2sc(N3CCC4(CCCN4Cc4ncc[nH]4)CC3)nc2c1 | 40.5
O=C(O)C(F)(F)F.O=C(O)C(F)(F)F.O[C@@H]1CCN(CC2CCOC2)[C@H]1Cc1cccnc1 (stereo partly specified) | -68.87
O=C(Nc1ccnc2ccnn12)c1ccc(N2CCC(O)CC2)cc1 | 18.31
Cc1ccc(C(CNCc2nccn2C)N2CCOCC2)s1 (stereo unspecified) | -2.296
COc1cc(C(F)(F)F)sc1C(=O)O | -31.22
COCc1ccc(C(=O)N2CCC(c3cc4nccnc4[nH]3)CC2)cc1 | 6.529
Cc1c(CN(C)C(=O)c2ccnn2C)cnn1C | -48.38
O=C(c1ccn(-c2cccc(F)c2)n1)N1CCN(CC2CC2)CC1 | -18.84
CN(C)CC(=O)N1Cc2nc(C(=O)NCc3ccccc3)oc2C1 | -17.27

Some entries from above, unchanged:

compound	percent effect
CC(O)CNC(=O)NCc1cccnc1OC1CCCC1 (stereo unspecified)	-21.44
CC(C)c1nc(CN2CCCC(Cn3cncn3)C2)cs1 (stereo unspecified)	-34.16
COc1cc(C(F)(F)F)sc1C(=O)O	-31.22
O=C(O)C(F)(F)F.O=C(O)C(F)(F)F.O[C@@H]1CCN(CC2CCOC2)[C@H]1Cc1cccnc1 (stereo partly specified)	-68.87
Cn1nc2c(cc1=O)CN(CCc1nc3ccccc3c(=O)[nH]1)CC2	-41.75
CSc1ccc(C(O)CNS(=O)(=O)C2CC2)cc1 (stereo unspecified)	0.7424